Values joined by “and” are separate entries in the source; they are usually repeats but may differ in a detail not shown here. Equal entries are not always repeated. Further values from the same series stand in other lists.
Legend:
[1] = Urine concentrations, 72-hour continuous intravenous infusion; type: in vivo, Sprague-Dawley rats; conditions: individual animals
Protocol: (§1) The safety and pharmacokinetics of PPTN (KB-1801) in rats receiving continuous intravenous injections of SBECD-containing solutions were analyzed. Three cohorts of six male and six female rats each were given continuous intravenous infusion of PPTN (KB-1801) at 10 mg/kg/day, 30 mg/kg/day or 100 mg/kg/day in a dosing solution containing PPTN at 0.25 mg/mL, 0.75 mg/mL or 2.5 mg/mL and SBECD at about 3.8%. Dosing volume was 40 mIkg/day.

[2] = Urine concentrations, 24-hour continuous intravenous infusion; type: in vivo, Sprague-Dawley rats; conditions: for Urine Conc.: individual animals; for Urine Conc., individual animal: male Sprague-Dawley rats, 24-hour intravenous infusion at 10 mg/kg, 10 mg/kg
Protocol: as §1

[3] = 72-hour IV infusion 30 mg/kg/day, female rats, interval 20-24 h
[4] = 72-hour IV infusion 30 mg/kg/day, female rats, interval 44-48 h
[5] = 72-hour IV infusion 30 mg/kg/day, female rats, interval 68-72 h
[6] = 72-hour IV infusion 30 mg/kg/day, female rats, interval 92-96 h
[7] = 72-hour IV infusion 30 mg/kg/day, male rats, interval 0-4 h
[8] = 72-hour IV infusion 30 mg/kg/day, male rats, interval 4-9 h
[9] = 72-hour IV infusion 30 mg/kg/day, male rats, interval 20-24 h
[10] = 72-hour IV infusion 30 mg/kg/day, male rats, interval 44-48 h
[11] = 72-hour IV infusion 30 mg/kg/day, male rats, interval 68-72 h
[12] = 72-hour IV infusion 30 mg/kg/day, male rats, interval 92-96 h
[13] = 72-hour IV infusion 100 mg/kg/day, female rats, interval 0-4 h
[14] = 72-hour IV infusion 100 mg/kg/day, female rats, interval 4-9 h
[15] = 72-hour IV infusion 100 mg/kg/day, female rats, interval 20-24 h
[16] = 72-hour IV infusion 100 mg/kg/day, female rats, interval 44-48 h
[17] = 72-hour IV infusion 100 mg/kg/day, female rats, interval 68-72 h
[18] = 72-hour IV infusion 100 mg/kg/day, female rats, interval 92-96 h
[19] = 72-hour IV infusion 100 mg/kg/day, male rats, interval 0-4 h
[20] = 72-hour IV infusion 100 mg/kg/day, male rats, interval 4-9 h
[21] = 72-hour IV infusion 100 mg/kg/day, male rats, interval 20-24 h
[22] = 72-hour IV infusion 100 mg/kg/day, male rats, interval 44-48 h
[23] = 72-hour IV infusion 100 mg/kg/day, male rats, interval 68-72 h
[24] = 72-hour IV infusion 100 mg/kg/day, male rats, interval 92-96 h

O=C(O)c1cc(-c2ccc(C3CCNCC3)cc2)c2ccc(-c3ccc(C(F)(F)F)cc3)cc2c1 [KB-1801, 4-[4-(piperidin-4-yl)phenyl]-7-[4-(trifluoromethyl)phenyl]-2-naphthoic acid]
Amount in urine [1, 3]: 12.0 µg and 27.5 µg and 15.7 µg and 8.49 µg and 66.5 µg and 16.0 µg | Urine Conc. [1, 3]: 24.1 µg/mL and 27.5 µg/mL and 39.3 µg/mL and 84.9 µg/mL and 66.5 µg/mL and 16.0 µg/mL | Amount in urine [1, 4]: 25.2 µg and 31.4 µg and 52.6 µg and 13.7 µg and 12.4 µg and 58.3 µg | Urine Conc. [1, 4]: 50.5 µg/mL and 31.4 µg/mL and 52.6 µg/mL and 45.6 µg/mL and 61.9 µg/mL and 38.9 µg/mL | Amount in urine [1, 5]: 26.4 µg and 6.96 µg and 10.8 µg and 1.57 µg and 40.1 µg | Urine Conc. [1, 5]: 26.4 µg/mL and 34.8 µg/mL and 54.2 µg/mL and 78.3 µg/mL and 20.0 µg/mL | Amount in urine [1, 6]: 0.008 μg and 0.01 μg (2×) and 0.03 μg and 0.02 μg (2×) | Urine Conc. [1, 6]: 0.02 μg/mL (2×) and 0.04 μg/mL and 0.10 μg/mL and 0.11 μg/mL and 0.09 μg/mL | Amount in urine [1, 7]: 7.51 µg and 1.93 µg and 1.19 µg and 0.0 µg and 2.29 µg | Urine Conc. [1, 7]: 7.51 µg/mL and 32.1 µg/mL and 23.9 µg/mL and 0.89 µg/mL and 5.72 µg/mL | Amount in urine [1, 8]: 17.0 µg and 3.07 µg and 31.1 µg and 11.4 µg and 29.3 µg | Urine Conc. [1, 8]: 34.0 µg/mL and 76.7 µg/mL and 20.7 µg/mL and 114.0 µg/mL and 73.3 µg/mL | Amount in urine [1, 9]: 35.0 µg and 55.7 µg and 33.4 µg and 39.0 µg and 83.2 µg | Urine Conc. [1, 9]: 70.0 µg/mL and 55.7 µg/mL and 111.5 µg/mL and 78.0 µg/mL and 41.6 µg/mL | Amount in urine [1, 10]: 64.7 µg and 82.2 µg and 106.2 µg and 32.0 µg and 11.5 µg and 127.0 µg | Urine Conc. [1, 10]: 64.7 µg/mL and 82.2 µg/mL and 53.1 µg/mL and 64.0 µg/mL and 114.6 µg/mL and 63.5 µg/mL | Amount in urine [1, 11]: 63.2 µg and 77.8 µg and 55.7 µg and 42.7 µg and 25.4 µg and 90.1 µg | Urine Conc. [1, 11]: 63.2 µg/mL and 77.8 µg/mL and 55.7 µg/mL and 85.4 µg/mL and 127.1 µg/mL and 60.0 µg/mL | Amount in urine [1, 12]: 0.51 µg and 0.47 µg and 0.10 µg and 0.53 µg and 0.26 µg and 0.08 µg | Urine Conc. [1, 12]: 0.26 μg/mL and 0.23 μg/mL and 0.52 μg/mL (2×) and 0.53 μg/mL and 0.39 μg/mL | Amount in urine [1, 13]: 1.88 μg and 26.8 μg and 0.0 μg (2×) | Urine Conc. [1, 13]: 31.3 µg/mL and 53.6 µg/mL and 0.01 µg/mL and 0.02 µg/mL | Amount in urine [1, 14]: 29.6 µg and 51.6 µg and 68.6 µg and 54.7 µg and 5.5 µg | Urine Conc. [1, 14]: 98.8 µg/mL and 257.8 µg/mL and 45.7 µg/mL and 109.3 µg/mL and 109.6 µg/mL | Amount in urine [1, 15]: 45.4 µg and 52.8 µg and 0.1 µg and 91.5 µg and 34.9 µg and 50.0 µg | Urine Conc. [1, 15]: 151.3 µg/mL and 105.5 µg/mL and 0.6 µg/mL and 91.5 µg/mL and 349.3 µg/mL and 124.9 µg/mL | Amount in urine [1, 16]: 119.6 µg and 16.3 µg and 52.6 µg and 73.2 µg | Urine Conc. [1, 16]: 79.7 µg/mL and 162.8 µg/mL and 175.4 µg/mL and 146.4 µg/mL | Amount in urine [1, 17]: 55.0 µg and 44.2 µg and 78.6 µg and 38.3 µg and 9.20 µg and 225.2 µg | Urine Conc. [1, 17]: 110.0 µg/mL and 220.9 µg/mL and 262.0 µg/mL and 127.6 µg/mL and 613.4 µg/mL and 225.2 µg/mL | Amount in urine [1, 18]: 0.04 μg and 0.21 μg and 0.01 μg (2×) and 0.09 μg and 0.05 μg | Urine Conc. [1, 18]: 0.19 μg/mL (2×) and 0.41 μg/mL and 0.18 μg/mL and 0.25 μg/mL and 0.10 μg/mL | Amount in urine [1, 19]: 12.0 µg and 6.62 µg and 11.03 µg and 37.6 µg and 42.7 µg | Urine Conc. [1, 19]: 119.9 µg/mL and 33.1 µg/mL and 110.3 µg/mL and 93.9 µg/mL and 142.4 µg/mL | Amount in urine [1, 20]: 21.8 µg and 28.5 µg and 103.5 µg and 67.7 µg and 233.3 µg and 8.0 µg | Urine Conc. [1, 20]: 218.2 µg/mL and 284.7 µg/mL and 207.1 µg/mL and 135.4 µg/mL and 93.3 µg/mL and 79.7 µg/mL | Amount in urine [1, 21]: 205.3 µg and 120.0 µg and 102.7 µg and 50.9 µg and 53.1 µg and 58.3 µg | Urine Conc. [1, 21]: 205.3 µg/mL and 239.9 µg/mL and 102.7 µg/mL and 254.4 µg/mL and 265.7 µg/mL and 291.4 µg/mL | Amount in urine [1, 22]: 79.5 µg and 401.7 µg and 73.4 µg and 38.8 µg and 218.6 µg | Urine Conc. [1, 22]: 397.5 µg/mL and 200.8 µg/mL and 367.0 µg/mL and 388.2 µg/mL and 145.7 µg/mL | Amount in urine [1, 23]: 17.8 µg and 165.9 µg and 261.0 µg and 174.4 µg and 110.2 µg | Urine Conc. [1, 23]: 177.9 µg/mL and 331.8 µg/mL and 261.0 µg/mL and 348.8 µg/mL and 220.3 µg/mL | Amount in urine [1, 24]: 1.13 µg and 0.73 µg and 0.34 µg and 0.53 µg and 0.02 µg | Urine Conc. [1, 24]: 1.13 µg/mL and 1.45 µg/mL and 1.68 µg/mL and 1.06 µg/mL and 2.09 µg/mL | Urine Conc. ([2]; 24-hour IV infusion 10 mg/kg, female rats, interval 0-4 h): 0.33 µg/mL and 0.47 µg/mL and 0.81 µg/mL and 2.49 µg/mL and 4.21 µg/mL | Urine Conc. ([2]; 24-hour IV infusion 10 mg/kg, female rats, interval 4-9 h): 3.83 µg/mL and 13.2 µg/mL and 7.48 µg/mL and 0.54 µg/mL and 0.23 µg/mL | Urine Conc. ([2]; 24-hour IV infusion 10 mg/kg, female rats, interval 9-24 h): 25.7 µg/mL and 38.3 µg/mL and 18.2 µg/mL and 26.8 µg/mL and 15.3 µg/mL | Urine Conc. ([2]; 24-hour IV infusion 30 mg/kg, female rats, interval 0-4 h): 3.51 µg/mL and 6.66 µg/mL and 0.02 µg/mL and 17.69 µg/mL and 1.42 µg/mL | Urine Conc. ([2]; 24-hour IV infusion 30 mg/kg, female rats, interval 4-9 h): 9.17 µg/mL and 32.4 µg/mL and 15.1 µg/mL and 19.7 µg/mL | Urine Conc. ([2]; 24-hour IV infusion 30 mg/kg, female rats, interval 9-24 h): 55.3 µg/mL and 46.5 µg/mL and 68.3 µg/mL and 84.8 µg/mL and 75.6 µg/mL | Urine Conc. ([2]; 24-hour IV infusion 30 mg/kg, male rats, interval 0-4 h): 0.05 μg/mL and 2.03 μg/mL and 0.02 μg/mL (2×) and 0.003 μg/mL and 33.9 μg/mL | Urine Conc. ([2]; 24-hour IV infusion 30 mg/kg, male rats, interval 4-9 h): 26.0 µg/mL and 29.2 µg/mL and 28.2 µg/mL and 0.01 µg/mL and 7.87 µg/mL and 21.8 µg/mL | Urine Conc. ([2]; 24-hour IV infusion 30 mg/kg, male rats, interval 9-24 h): 48.2 µg/mL and 71.5 µg/mL and 87.1 µg/mL and 113.8 µg/mL and 90.6 µg/mL and 79.0 µg/mL | Urine Conc. ([2]; 24-hour IV infusion 100 mg/kg, female rats, interval 0-4 h): 0.01 μg/mL (2×) and 9.75 μg/mL and 3.61 μg/mL and 17.1 μg/mL and 2.38 μg/mL | Urine Conc. ([2]; 24-hour IV infusion 100 mg/kg, female rats, interval 4-9 h): 3.67 µg/mL and 48.3 µg/mL and 19.9 µg/mL and 0.01 µg/mL and 18.3 µg/mL | Urine Conc. ([2]; 24-hour IV infusion 100 mg/kg, female rats, interval 9-24 h): 26.7 µg/mL and 146.4 µg/mL and 48.8 µg/mL and 356.5 µg/mL and 167.0 µg/mL and 248.5 µg/mL | Urine Conc. ([2]; 24-hour IV infusion 100 mg/kg, male rats, interval 0-4 h): 0.24 µg/mL and 40.8 µg/mL and 128.2 µg/mL | Urine Conc. ([2]; 24-hour IV infusion 100 mg/kg, male rats, interval 4-9 h): 22.4 µg/mL and 52.0 µg/mL and 0.004 µg/mL and 60.3 µg/mL and 32.1 µg/mL and 143.1 µg/mL | Urine Conc. ([2]; 24-hour IV infusion 100 mg/kg, male rats, interval 9-24 h): 403.7 µg/mL and 412.0 µg/mL and 561.5 µg/mL and 541.9 µg/mL and 155.6 µg/mL | Urine Conc., individual animal ([2]; time interval 0-4 h): 5.36 µg/mL and 1.41 µg/mL and 10.1 µg/mL and 7.41 µg/mL and 0.06 µg/mL | Urine Conc., individual animal ([2]; time interval 4-9 h): 11.2 µg/mL and 1.16 µg/mL and 30.7 µg/mL and 1.30 µg/mL | Urine Conc., individual animal ([2]; time interval 9-24 h): 32.3 µg/mL and 17.8 µg/mL and 31.6 µg/mL and 33.2 µg/mL and 28.1 µg/mL and 37.0 µg/mL
